# Some of the results follow. Single values are uncertain here, since repeats match poorly.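 In a drug-repurposing library screen, luminescence reads luciferase driven by eight TEAD-binding elements, stably integrated into human kidney-derived cells. Compounds scoring over five robust Z scores above the plate mean are called hits.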
# Tested on: HEK293A TEAD-LUC reporter
# Assay: TEAD-luciferase reporter activity (YAP activation), robust Z score vs plate; higher = stronger YAP/TEAD activation
# Conditions: 24 h
SMILES,TEAD-luciferase reporter activity (compound concentration: 200 nM),TEAD-luciferase reporter activity (compound concentration: 2 uM),TEAD-luciferase reporter activity (compound concentration: 10 uM)
CCC(OC(N)=O)C1CCCCC1 (centres undefined) [1-cyclohexylpropyl carbamate],inactive: 0.974,inactive: -0.496,inactive: 0.936
O=C(O)CCc1ccc(-c2ccc(Cl)cc2)o1,inactive: 3.58,inactive: -0.829,inactive: -1.34
CC(C)C[C@H]1CC[C@H](C(=O)COS(=O)(=O)c2ccccc2)CC1,inactive: -1.77,inactive: 0.297,inactive: 0.443
COc1ccc2c(c1)c(CN1CCN(C)CC1)cn2S(=O)(=O)c1ccccc1Br,inactive: -2.35,inactive: -0.0944,inactive: -1.64
O=C1C(O)=C(CCCCCCCCC2CCCCC2)C(=O)c2ccccc21,inactive: -1.65,inactive: -1.12,inactive: -0.247
O=C(c1ccncc1)N1CCC(n2c(=O)[nH]c3ccccc32)CC1,inactive: -0.498,–,inactive: 0.42
CN(C)CCN1C(=O)c2ccccc2N(C)c2ccccc21,inactive: -0.749,inactive: 0.537,inactive: 0.00514
Cc1ccccc1OCC(O)CO (centres undefined),inactive: -1.08,inactive: -1.52,inactive: -1.53
C[C@H](N)C(=O)N[C@@H](C)C(=O)NC1[C@H]2CN(c3nc4c(cc3F)c(=O)c(C(=O)O)cn4-c3ccc(F)cc3F)C[C@@H]12 (some centres undefined) [alatrofloxacin mesilate],inactive: -0.204,inactive: -0.102,inactive: -0.958
CCN(CC)CCOC(=O)C1(c2ccccc2)CCCC1 [Caramifenio],inactive: -1.3,–,inactive: 0.0573
CCN(CC)CCOC(=O)C1(c2ccccc2)CCCC1,–,inactive: -1.14,–
N=C(NCCCCCCNC(=N)NC(=N)Nc1ccc(Cl)cc1)NC(=N)Nc1ccc(Cl)cc1 [chlorhexidine dressing],–,inactive: -1.82,–
"N=C(NCCCCCCNC(=N)NC(=N)Nc1ccc(Cl)cc1)NC(=N)Nc1ccc(Cl)cc1 [chlorhexidine dressing, Hercon]",inactive: -1.15,–,inactive: 0.0267
"COc1ccccc1OCC(O)CO (centres undefined) [guaifenesin, Elan]",inactive: -1.3,inactive: -1.23,inactive: 2.72
CSc1ccc(Cc2c(O)n[nH]c2C(F)(F)F)cc1,inactive: -1.21,inactive: -1.38,inactive: 4.99
CC(=O)NC(CS)C(=O)O (centres undefined),inactive: -0.862,–,inactive: -1.49
CC(=O)NC(CS)C(=O)O (centres undefined) [nacystelyn],–,inactive: -0.724,–
CCN(CC)CCn1cnc2c1c(=O)n(C)c(=O)n2C,inactive: -0.0299,inactive: 2.14,inactive: 2.39
Cc1nnnn1/N=C/c1ccc(O)c(C(c2ccc(O)cc2)c2cc(/C=N/n3nnnc3C)ccc2O)c1,inactive: 0.148,inactive: 0.803,active: 8.34
CCn1cc(C(=O)O)c(=O)c2cc3occc3nc21,inactive: -0.0548,inactive: 0.0778,inactive: -1.36

SMILES,TEAD-luciferase reporter activity (compound concentration: 200 nM),TEAD-luciferase reporter activity (compound concentration: 2 uM),TEAD-luciferase reporter activity (compound concentration: 10 uM)
CCCCCCCCCCCCCCCCNc1ccc(C(=O)O)cc1 [cetaben sodium],inactive: 0.238,inactive: 0.213,inactive: 0.0274
CN1CCC(C(=O)N2CCC(n3c(=O)[nH]c4ccccc43)CC2)CC1,inactive: -1.92,–,inactive: 2.87
CNC(=O)c1c(-c2ccc(F)cc2)oc2cc(N(c3cc(Cl)c4c(c3)COB4O)S(C)(=O)=O)c(C3CC3)cc12,inactive: -0.803,inactive: -0.774,inactive: -1.05
CSCC[C@H](N)C(=O)N[C@@H](CCC(=O)O)C(=O)N[C@@H](Cc1cnc[nH]1)C(=O)N[C@@H](Cc1ccccc1)C(=O)N1CCC[C@H]1C(=O)NCC(=O)N1CCC[C@H]1C(=O)O,inactive: -1.78,inactive: -0.637,inactive: -1.12
COc1cccc(S(=O)(=O)N2CC(N(C)c3ccccc3C)C2)c1,inactive: 1.08,–,inactive: 0.091
O=C(O)c1cc2cc(O)ccc2n1Cc1ccc(Cl)c(C(F)(F)F)c1,inactive: 0.425,inactive: -1.23,inactive: 0.466
Cc1cccc(C)c1N(CCCc1cccnc1)C(=O)[C@@H](C)N [Milacainide],inactive: -0.727,inactive: -0.397,inactive: -0.29
CCC(C)(CN(C)C)OC(=O)c1ccccc1 (centres undefined),inactive: 1.04,inactive: 1.69,inactive: 1.44
CCCCc1oc2ccccc2c1C(=O)c1cc(I)c(OCCN(CC)CC)c(I)c1,inactive: -1.45,–,inactive: 0.0705
CCCCc1oc2ccccc2c1C(=O)c1cc(I)c(OCCN(CC)CC)c(I)c1 [amiodarone],–,inactive: 0.585,–
COC(=O)N1CCC(CC#Cc2nc(N)c3ncn([C@@H]4O[C@H](C(=O)NC5CC5)[C@@H](O)[C@H]4O)c3n2)CC1,inactive: 3.26,inactive: -0.552,inactive: -0.178
C=C1C(O)C(CO)OC1n1ccc(N)nc1=O (centres undefined),inactive: -0.196,inactive: -0.434,inactive: 0.334
CN(C)CCOC(c1ccccc1)c1ccc(Br)cc1 (centres undefined),inactive: 0.956,inactive: 1.18,inactive: 0.167
C[C@H](N[C@@H](CCc1ccccc1)C(=O)O)C(=O)N1Cc2ccccc2C[C@H]1C(=O)O [quinaprilat],inactive: -1.25,inactive: -0.808,inactive: 2.08
Nc1c2c(nc3ccccc13)CCCC2,inactive: 4.34,–,inactive: 0.0048
"Nc1c2c(nc3ccccc13)CCCC2 [tacrine, OROS]",–,inactive: -2.39,–
Cc1cc(S(C)(=O)=O)c(S(C)(=O)=O)cc1C(=O)NC(=N)N,inactive: -0.697,inactive: -0.806,inactive: -0.733
Cc1cccc(COC2CCCC(OCc3coc(-c4ccc(F)cc4)n3)C2)c1C(=O)O (centres undefined),inactive: -1.73,inactive: -0.221,inactive: -1.26
N[C@@H](Cc1cc(I)c(Oc2cc(I)c(O)c(I)c2)c(I)c1)C(=O)O [Levothyroxine sodium],–,inactive: -1.09,–
N[C@@H](Cc1cc(I)c(Oc2cc(I)c(O)c(I)c2)c(I)c1)C(=O)O,inactive: -1.21,–,inactive: 0.307

SMILES,TEAD-luciferase reporter activity (compound concentration: 200 nM),TEAD-luciferase reporter activity (compound concentration: 2 uM),TEAD-luciferase reporter activity (compound concentration: 10 uM)
COCC(C)OC(=O)[C@@H](N)Cc1ccc(O)c(O)c1 (some centres undefined),inactive: -0.294,inactive: -1.19,inactive: 3.87
CCNC(=O)c1noc(-c2cc(C(C)C)c(O)cc2O)c1-c1ccc(CN2CCOCC2)cc1 [Luminespib],inactive: -3.21,inactive: -1.38,inactive: 0.924
CCC(c1ccc(O)cc1)C(CC)c1ccc(O)cc1 (centres undefined),inactive: 0.00205,inactive: 1.08,inactive: -0.636
O=C1NC2(CCN(Cc3ccc(F)cc3)CC2)Oc2ccccc21,inactive: 0.137,–,inactive: -0.309
CC(C)(C)c1cc(C2CCCCC2)ccc1OC(=O)c1ccc[n+]([O-])c1,inactive: 0.0406,inactive: 0.916,inactive: -1.95
Cn1c(-c2ccccc2)nnc1S(C)(=O)=O,inactive: -2.61,inactive: 0.113,inactive: 0.801
CCOCCn1c(C2CCN(CCc3ccc(C(C)(C)C(=O)O)cc3)CC2)nc2ccccc21 [bilastine],inactive: -1.34,inactive: 0.531,inactive: 1.05
CC(C)(C)c1ccc(C(=O)CCCN2CCC(OC(c3ccccc3)c3ccccc3)CC2)cc1 [ebastine],inactive: 0.513,inactive: -0.565,inactive: -0.943
CCN(CC)CCOC(=O)C(c1ccccc1)C1(O)CCCC1 (centres undefined),inactive: 0.00927,inactive: -0.551,inactive: 0.184
CN(C)CCN(Cc1ccccc1)c1ccccn1,inactive: -0.308,inactive: 2.11,inactive: 1.78
CC1(C)CC(=O)c2c(C(F)(F)F)nn(-c3ccc(C(N)=O)c(N[C@H]4CC[C@H](OC(=O)CN)CC4)c3)c2C1,inactive: -1.26,inactive: -0.416,inactive: -3.46
CC1(C)S[C@@H]2[C@H](NC(=O)[C@H](N)c3ccccc3)C(=O)N2[C@H]1C(=O)OCOC(=O)[C@@H]1N2C(=O)C[C@H]2S(=O)(=O)C1(C)C [sultamicillin],inactive: 1.54,inactive: -1.25,inactive: 1.13
O=C(NC1CCCCCC1)c1ccc2nccn2c1,inactive: -0.963,–,active: 7.35
CNc1cc(OC)c(C(=O)NC2CCN(Cc3ccccc3)[C@H]2C)cc1Cl (some centres undefined) [nemonapride],inactive: 0.0559,inactive: -1.35,inactive: -2.14
O=C1CCCCC1(CCN1CCCCCC1)C(=O)OCc1ccccc1 (centres undefined),inactive: -1.15,inactive: 0.843,inactive: 1.05
O=N[O-] [Sodium Nitrite],inactive: -2.22,inactive: 0.954,inactive: 4.34
CCC(C)C1OC2(C=CC1C)CC1CC(C/C=C(\C)C(OC3CC(OC)C(OC4CC(OC)C(NC(C)=O)C(C)O4)C(C)O3)C(C)/C=C/C=C3\COC4C(O)C(C)=CC(C(=O)O1)C34O)O2 (centres undefined),inactive: 4.32,inactive: -0.158,inactive: -0.671
Cc1cc(Nc2ccc(C(F)(F)F)nc2)n2nc(C(C)(F)F)nc2n1,inactive: -0.822,inactive: 0.316,inactive: 4.65
COC(Cc1ccc(OCCCOc2ccc(Oc3ccccc3)cc2)cc1)C(=O)O (centres undefined),inactive: -0.405,inactive: 0.956,inactive: -0.809

# Reformatted with bars between the fields: part of the list above
SMILES | TEAD-luciferase reporter activity (compound concentration: 200 nM) | TEAD-luciferase reporter activity (compound concentration: 2 uM) | TEAD-luciferase reporter activity (compound concentration: 10 uM)
O=C(NC1CCCCCC1)c1ccc2nccn2c1 | inactive: -0.963 | – | active: 7.35
Cc1cc(Nc2ccc(C(F)(F)F)nc2)n2nc(C(C)(F)F)nc2n1 | inactive: -0.822 | inactive: 0.316 | inactive: 4.65

# Source: the supplement of paper PMC10735217
